# Values from PubChem BioAssay AID686937 (Drosophila RNAi Screening Center, 2013)
# Screen: 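Genes whose loss weakens secretory pathway function in fly cells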 (primary screen)
# System: Drosophila S2 cells expressing secreted horseradish peroxidase
# Knock-down reagent: long dsRNA against Drosophila genes
# Timing: about 5.5 days (5 days dsRNA, then 12 h reporter induction)
# Conditions: reporter expression induced after 5 days of dsRNA, read 12 h later; inducer not stated
# Read-out: 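After 5 days of dsRNA and 12 h of reporter induction, medium peroxidase read by chemiluminescence and scored as per-plate z-score; higher values mean more reporter released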
# Scale: z-score: higher = more reporter secreted into medium
# In all, the deposit lists about 23,000 reagents; this is an unselected part of those with a known target gene and a result. 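Reduced-secretion tags in replicate 1 do not always agree with the z-scores; no criterion for assigning the tags was given.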 The record does not give: the amount of reagent.
Gene,DRSC id,"z-score, replicate 1","z-score, replicate 2","phenotype, replicate 1"
CG11099 (GeneID 37282),DRSC06034,0.21,-1.07,
CG12607 (GeneID 38547),DRSC08287,0.18,0.43,
eve (GeneID 36039),DRSC07614,0.6,0.42,
pncr003:2L (retired record) (GeneID 3772689),DRSC22149,-0.73,1.07,
CG3308 (GeneID 42527),DRSC15474,0.32,0.36,
ena (GeneID 37201),DRSC05779,0.56,0.59,
ena (GeneID 37201),DRSC07610,0.22,0.23,
Cyp4e1 (GeneID 44632),DRSC07370,0.26,0.24,
PIG-N (GeneID 36049),DRSC06837,0.3,0.08,
CSN5 (GeneID 42000),DRSC16592,0.29,0.05,
CSN5 (GeneID 42000),DRSC22381,-0.45,0.38,
Pglym78 (GeneID 43447),DRSC16787,0.12,0.22,

2 neighbouring reagents already listed, quoted:
Gene,DRSC id,"z-score, replicate 1","z-score, replicate 2","phenotype, replicate 1"
PIG-N (GeneID 36049),DRSC06837,0.3,0.08,
CSN5 (GeneID 42000),DRSC16592,0.29,0.05,

Continued.
Gene,DRSC id,"z-score, replicate 1","z-score, replicate 2","phenotype, replicate 1"
CG8586 (GeneID 35854),DRSC07218,0.3,0.2,
CG13362 (GeneID 31018),DRSC17897,0.37,0.41,
mRpS22 (GeneID 43345),DRSC14488,0.06,-0.1,
Girdin (GeneID 38385),DRSC08292,-0.16,-0.04,
CG3927 (GeneID 37576),DRSC04433,0.28,0.46,
CG3927 (GeneID 37576),DRSC22813,0.06,0.15,
mil (GeneID 43343),DRSC15696,0.26,0.14,
slv (GeneID 35773),DRSC07685,0.16,0.22,
CG34251 (GeneID 5740860),DRSC09498,0.36,0.2,
CG34251 (GeneID 5740860),DRSC09500,0.17,0.2,
pon (GeneID 31394),DRSC18823,0.24,0.37,
CG9917 (GeneID 32596),DRSC20218,0.23,0.29,
CG9664 (GeneID 33540),DRSC00725,0.47,0.52,
Corp (GeneID 31764),DRSC17771,0.3,0.39,
SREBP (GeneID 40155),DRSC11182,-5.42,-7.31,reduced secretion
CG9698 (GeneID 43629),DRSC16539,0.4,0.56,
CG30049 (GeneID 246416),DRSC21345,0.25,-0.07,
Or85a (GeneID 40991),DRSC16764,0.35,0.61,
dpr6 (GeneID 50296),DRSC09005,-4.28,-5.05,reduced secretion
dpr6 (GeneID 50296),DRSC10162,0.41,0.14,
dpr6 (GeneID 50296),DRSC10163,0.76,0.27,
